Data: patent US12409179B2 (GENEROS BIOPHARMA LTD., priority 2019, dated 2025)
At least one structure is not confirmed: it was looked up by name or label, or the drawing left a doubt.

Key:
[1] = test system: animal models of arthritis; conditions: reported in WO2018213027A1; by inhibiting STATS activity; cited from earlier work
[2] = test system: Lewis rat adjuvant-induced arthritis model; test: Embodiment 1: oral Nib1 and injected methotrexate in Lewis rat adjuvant-induced arthritis model (joint score, paw volume, AUC); assay type: in vivo; conditions: Nib1 alone, oral 10 mg/kg, once every two days

O=c1[nH]c2ccccc2n1C1CCN(CCCC(c2ccc(F)cc2)c2ccc(F)cc2)CC1 [Nib1, Pimozide]
therapeutic efficacy in animal models of arthritis [1]: significant therapeutic efficacy | therapeutic effect on the arthritis model (experimental conclusion) [2]: had a significant therapeutic effect on the arthritis model, and was not inferior to tofacitinib
